PubChem BioAssay AID1259425 | University of Nebraska Medical Center | 2018
In all, the deposit lists about 14,000 reagents; shown is a random part of them. Further read-outs or replicates are left out here. The record does not give: the time to read-out.

Purpose: 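Seek colon cancer weak points whose silencing resembles KSR1 loss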 (primary screen)
Cells: HCT116 human colon cancer cells
Reagent: siRNA pool against human genes, 50 nM siRNA
Measurement: 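mRNA of six signature genes measured together by branched-DNA assay after 50 nM siRNA pool, blank removed, divided by geometric mean of two housekeeping genes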
Reading the numbers: BNIP3L mRNA: higher = more BNIP3L transcript after knockdown; NDRG1 mRNA: higher = more NDRG1 transcript after knockdown; BNIP3 mRNA: higher = more BNIP3 transcript after knockdown; ALDOC mRNA: higher = more ALDOC transcript after knockdown

gene symbol | BNIP3L mRNA, set 1 | NDRG1 mRNA, set 1 | BNIP3 mRNA, set 1 | ALDOC mRNA, set 1
PROX1 (GeneID 5629) | 0.247 | 0.193 | 0.345 | 0.029
PIK3R4 (GeneID 30849) | 0.23 | 0.185 | 0.345 | 0.0301
GMPR2 (GeneID 51292) | 0.091 | 0.215 | 0.161 | 0.0373
PKD1L1-AS1 (GeneID 80099) | 0.0734 | 0.187 | 0.349 | 0.0187
GNRH2 (GeneID 2797) | 0.109 | 0.13 | 0.215 | 0.0241
SPTLC1 (GeneID 10558) | 0.0739 | 0.669 | 0.312 | 0.0248
RHOH (GeneID 399) | 0.0752 | 0.0661 | 0.297 | 0.00273
APOA4 (GeneID 337) | 0.0714 | 0.146 | 0.0927 | 0.0233
SCGB2A1 (GeneID 4246) | 0.101 | 0.141 | 0.346 | 0.0412
FUT1 (GeneID 2523) | 0.0389 | 0.0703 | 0.252 | 0.0251
ARVCF (GeneID 421) | 0.0912 | 0.109 | 0.272 | 0.0296
F2RL3 (GeneID 9002) | 0.116 | 0.217 | 0.345 | 0.0401
CELA3A (GeneID 10136) | 0.0944 | 0.234 | 0.399 | 0.0232
SQLE (GeneID 6713) | 0.0783 | 0.111 | 0.339 | 0.0496
GNG3 (GeneID 2785) | 0.138 | 0.115 | 0.362 | 0.0153
MTERF1 (GeneID 7978) | 0.173 | 0.486 | 0.343 | 0.0337
ACTN3 (GeneID 89) | 0.219 | 0.365 | 0.436 | 0.0267
SCN1A (GeneID 6323) | 0.131 | 0.0522 | 0.256 | 0.0321
MRPS22 (GeneID 56945) | 0.125 | 0.157 | 0.344 | 0.0311
EHD1 (GeneID 10938) | 0.239 | 0.66 | 0.528 | 0.0283
SLC22A5 (GeneID 6584) | 0.0931 | 0.29 | 0.252 | -0.000422
FRG2 (GeneID 448831) | 0.137 | 0.417 | 0.284 | 0.0232
IMPACT (GeneID 55364) | 0.057 | 0.233 | 0.259 | 0.0175
CDC7 (GeneID 8317) | 0.142 | 0.0395 | 0.279 | 0.0035
DPAGT1 (GeneID 1798) | 0.209 | 0.199 | 0.285 | 0.0552
CDC20 (GeneID 991) | 0.0856 | 0.378 | 0.296 | 0.0202
GRIN1 (GeneID 2902) | 0.115 | 0.0917 | 0.174 | 0.0506
HELZ (GeneID 9931) | 0.0897 | 0.741 | 0.272 | 0.0219
ARRDC1-AS1 (GeneID 85026) | 0.13 | 0.336 | 0.341 | 0.0294
ABTB1 (GeneID 80325) | 0.143 | 0.0306 | 0.199 | 0.016
CNFN (GeneID 84518) | 0.202 | 0.345 | 0.0969 | 1
MYL12A (GeneID 10627) | 0.144 | 0.276 | 0.385 | 0.0487

Next part; the last 4 above are carried over.
gene symbol | BNIP3L mRNA, set 1 | NDRG1 mRNA, set 1 | BNIP3 mRNA, set 1 | ALDOC mRNA, set 1
ARRDC1-AS1 (GeneID 85026) | 0.13 | 0.336 | 0.341 | 0.0294
ABTB1 (GeneID 80325) | 0.143 | 0.0306 | 0.199 | 0.016
CNFN (GeneID 84518) | 0.202 | 0.345 | 0.0969 | 1
MYL12A (GeneID 10627) | 0.144 | 0.276 | 0.385 | 0.0487
CCDC81 (GeneID 60494) | 0.0846 | 0.149 | 0.243 | 0.0256
TGFBR2 (GeneID 7048) | 0.128 | 0.142 | 0.432 | 0.0174
PPFIBP2 (GeneID 8495) | 0.24 | 0.141 | 0.259 | 0.0597
TLE6 (GeneID 79816) | 0.264 | 0.322 | 0.47 | 0.0396
PCGF6 (GeneID 84108) | 0.143 | 0.0838 | 0.275 | 0.0778
DHFR (GeneID 1719) | 0.182 | 0.162 | 0.422 | 0.0689
INHBB (GeneID 3625) | 0.0765 | 0.379 | 0.259 | 0.0235
DEPTOR (GeneID 64798) | 0.0867 | 0.213 | 0.268 | 0.0349
TRIM2 (GeneID 23321) | 0.0895 | 0.445 | 0.384 | 0.0216
LPL (GeneID 4023) | 0.125 | 0.102 | 0.423 | 0.0365
MRAS (GeneID 22808) | 0.0945 | 0.182 | 0.274 | 0.0264
MDH1 (GeneID 4190) | 0.101 | 0.0819 | 0.211 | 0.0319
F2 (GeneID 2147) | 0.075 | 0.179 | 0.256 | 0.012
NAA38 (GeneID 84316) | 0.138 | 0.109 | 0.303 | 0.0527
PDZD4 (GeneID 57595) | 0.0736 | 0.24 | 0.228 | 0.0076
STK40 (GeneID 83931) | 0.127 | 0.443 | 0.209 | 0.0027
POU4F3 (GeneID 5459) | 0.0459 | 0.114 | 0.287 | 0.00418
RGMA (GeneID 56963) | 0.126 | 0.135 | 0.262 | 0.0331
